PubChem BioAssay AID743458 – Peter MacCallum Cancer Centre – 2014

Aim: 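Identify genes whose loss lifts vorinostat resistance in colon cancer cells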 (follow-up of hits)
Cells: human HCT116-VR colon cancer cells made resistant to vorinostat
Knock-down reagent: single siRNA or pool against human genes, 25 nM per single siRNA
Duration: about 72 h after transfection, including 24 h of drug
Challenge: vorinostat, 2.5 µM final, for 24 h
Detection: 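Live-cell fluorescent viability and luminescent caspase 3/7 activity after vorinostat treatment, background subtracted, mean of duplicate plates, as fold change over mock-transfected wells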
Reading the numbers: viability relative to mock: higher = more living cells than mock; caspase activity relative to mock: higher = more apoptosis than mock
Active means: 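An siRNA counts as active if classed as reduced viability or as caspase activation, otherwise inactive; a hit class needed wells that remained healthy in the absence of drug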
In all, the deposit lists about 1,800 reagents; shown is an unselected part. In the full data, 732 (41%) were called active. 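Calls are per siRNA reagent; a gene was deemed confirmed only if most of its four siRNAs scored.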 The numbers tell different reagents against one gene apart. No sequences are given here.

| target gene | reagent no. | viability relative to mock | caspase activity relative to mock | viability hit class | caspase hit class | call |
| --- | --- | --- | --- | --- | --- | --- |
| ING2 | 1 | 0.9 | 0.92 | no change | no change | inactive |
| ING2 | 2 | 1 | 1.31 | no change | no change | inactive |
| ING2 | 3 | 1.08 | 1.04 | no change | no change | inactive |
| ING2 | 4 | 0.42 | 4.45 | reduced viability | caspase activation | active |
| PCOLCE2 | 1 | 0.96 | 1.74 | no change | no change | inactive |
| PCOLCE2 | 2 | 0.46 | 5.72 | reduced viability | caspase activation | active |
| PCOLCE2 | 3 | 0.66 | 4.12 | no change | caspase activation | active |
| PCOLCE2 | 4 | 0.85 | 2.02 | no change | no change | inactive |
| OSBPL6 | 1 | 0.66 | 0.9 | no change | no change | inactive |
| OSBPL6 | 2 | 0.89 | 4.37 | no change | caspase activation | active |
| OSBPL6 | 3 | 0.52 | 2.75 | reduced viability | caspase activation | active |
| OSBPL6 | 4 | 0.69 | 3.12 | no change | caspase activation | active |
| RNF167 | 1 | 1.04 | 1.84 | no change | no change | inactive |
| RNF167 | 2 | 0.94 | 1.11 | no change | no change | inactive |
| RNF167 | 3 | 0.53 | 4.04 | reduced viability | caspase activation | active |
| RNF167 | 4 | 0.77 | 2.18 | no change | no change | inactive |
| SYVN1 | 1 | 0.96 | 1.38 | no change | no change | inactive |
| SYVN1 | 2 | 0.89 | 2.08 | no change | no change | inactive |
| SYVN1 | 3 | 0.78 | 1.62 | no change | no change | inactive |
| SYVN1 | 4 | 0.94 | 1.36 | no change | no change | inactive |

Single entries from the list:
Entry for SYVN1 #4 in “call”: inactive
PCOLCE2 #4, viability relative to mock → 0.85
For “viability relative to mock”, ING2 #4 is entered as 0.42
For “caspase activity relative to mock”, RNF167 #4 has 2.18

The list goes on.
| target gene | reagent no. | viability relative to mock | caspase activity relative to mock | viability hit class | caspase hit class | call |
| --- | --- | --- | --- | --- | --- | --- |
| METRNL | 1 | 0.72 | 3.15 | no change | caspase activation | active |
| METRNL | 2 | 0.88 | 1.29 | no change | no change | inactive |
| METRNL | 3 | 0.38 | 3.62 | reduced viability | caspase activation | active |
| METRNL | 4 | 0.9 | 1.7 | no change | no change | inactive |
| TRIM59 | 1 | 0.76 | 2.5 | no change | no change | inactive |
| TRIM59 | 2 | 0.8 | 1.73 | no change | no change | inactive |
| TRIM59 | 3 | 0.86 | 0.97 | no change | no change | inactive |
| TRIM59 | 4 | 0.98 | 1.21 | no change | no change | inactive |
| ZNF629 | 1 | 0.81 | 1.63 | no change | no change | inactive |
| ZNF629 | 2 | 0.88 | 0.98 | no change | no change | inactive |
| ZNF629 | 3 | 0.26 | 3.66 | reduced viability | caspase activation | active |
| ZNF629 | 4 | 0.76 | 1.44 | no change | no change | inactive |
| FBP1 | 1 | 0.96 | 1.08 | no change | no change | inactive |
| FBP1 | 2 | 1.04 | 2 | no change | no change | inactive |
| FBP1 | 3 | 0.67 | 2.5 | no change | no change | inactive |
| FBP1 | 4 | 1.02 | 1.14 | no change | no change | inactive |
| TMEM208 | 1 | 0.91 | 1.13 | no change | no change | inactive |
| TMEM208 | 2 | 1 | 1 | no change | no change | inactive |
| TMEM208 | 3 | 0.86 | 1.19 | no change | no change | inactive |
| TMEM208 | 4 | 1 | 1.77 | no change | no change | inactive |
